Results deposited as PubChem BioAssay AID504793 (Drosophila RNAi Screening Center, 2011).

Assay: 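Knock-downs allowing continued mitosis even though DNA is damaged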 (primary screen)
Cell system: Drosophila S2R+ cells
Knock-down reagent: long dsRNA against Drosophila genes, about 0.25 µg dsRNA per well
Timing: 4 days of dsRNA, then 4 hours of drug before read-out
Challenge: doxorubicin 0.5 µM for 4 hours to cause double-strand breaks, in cells also given a low, harmless dose of dsRNA against nbs to sensitise the assay
Detection: 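Mitotic index as the number of phospho-histone H3-positive cells in each well following doxorubicin, given as raw counts without normalisation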
Reading the numbers: mitotic cells: higher = more cells in mitosis, weaker G2 arrest
Call rule: 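a call needs confirmation in secondary tests, with other dsRNAs and a check of mitotic timing without damage, not just a high primary count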
Calls: active = confirmed in follow-up tests; inactive = not confirmed
The deposit covers about 23,000 reagents; shown is an unselected part of those that have a named target and a result. Over the whole deposit, 62 (0.27%) got an active call. 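Calls come from follow-up tests whose scores are not deposited, so confirmed genes may have low counts here; counts are not normalised per plate.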 Raw values are not corrected between plates. Entries without a mark were called inactive. A plus sign joins genes that one reagent is predicted to hit.

no.	gene	DRSC id	mitotic cells, replicate 1
1	reb (rebuf)	DRSC06308	7
2	tum (tumbleweed)	DRSC07575	14
3	CG4691	DRSC01950	3
4	CG4691	DRSC27902	7
5	EndoG (Endonuclease G)	DRSC07292	18
6	EndoG (Endonuclease G)	DRSC22746	7
7	EndoG (Endonuclease G)	DRSC26632	5
8	Socs44A (Suppressor of Cytokine Signaling at 44A)	DRSC06828	3
9	CG10365	DRSC14234	12
10	CG4363	DRSC04465	7
11	Fancm (Fanconi anemia group M helicase)	DRSC16348	12
12	CG10026	DRSC02010	7
13	Klp98A (Kinesin-like protein at 98A)	DRSC16724	16
14	Klp98A (Kinesin-like protein at 98A)	DRSC21834	23
15	Gbs-70E (Glycogen binding subunit 70E)	DRSC11055	8
16	otk2 (off-track2)	DRSC07303	6
17	eRF1 (eukaryotic translation release factor 1)	DRSC11779	8
18	eRF1 (eukaryotic translation release factor 1)	DRSC27974	8
19	Usp16-45 (Ubiquitin specific protease 16/45)	DRSC18352	6
20	Usp16-45 (Ubiquitin specific protease 16/45)	DRSC26519	2
21	Abcd3 (ATP binding cassette subfamily D member 3)	DRSC19488	9
22	Abcd3 (ATP binding cassette subfamily D member 3)	DRSC29341	5
23	DCP1 (Decapping protein 1)	DRSC04091	4
24	DCP1 (Decapping protein 1)	DRSC29844	1
25	CG12547	DRSC07759	6
26	Girdin	DRSC08292	8
27	CG31370	DRSC21453	12
28	CG3008	DRSC00560	6
29	Rme-8 (Receptor mediated endocytosis 8)	DRSC07054	4
30	CG12360 (retired record)	DRSC14505	5
31	Spn77Bb + Spn77Bc	DRSC10689	4
32	Spn77Bb + Spn77Bc	DRSC11793	7
33	CR31958 (pseudo)	DRSC00282	1
34	CR31958 (pseudo)	DRSC21858	13
35	CR31958 (pseudo)	DRSC25319	5
36	l(2)efl (lethal (2) essential for life)	DRSC04698	6
37	Cpr76Bd (Cuticular protein 76Bd)	DRSC11063	6
38	CG2691	DRSC19866	6
39	l(2)dtl (lethal-(2)-denticleless)	DRSC04697	13
40	l(2)dtl (lethal-(2)-denticleless)	DRSC26021	5
41	or (orange)	DRSC04329	6
42	or (orange)	DRSC29241	5
43	CG18814	DRSC10347	2
44	CG11309	DRSC11650	2
45	CG11309	DRSC28126	8

5 entries from above in another layout:
Fancm (Fanconi anemia group M helicase) [DRSC16348] | mitotic cells, replicate 1 = 12
CG10026 [DRSC02010] | mitotic cells, replicate 1 = 7
Klp98A (Kinesin-like protein at 98A) [DRSC16724] | mitotic cells, replicate 1 = 16
Klp98A (Kinesin-like protein at 98A) [DRSC21834] | mitotic cells, replicate 1 = 23
Gbs-70E (Glycogen binding subunit 70E) [DRSC11055] | mitotic cells, replicate 1 = 8
